Results on one molecule are retold here after article PMC12005744.

The chains behind the UniProt entries cited, without tags or fusion partners. Residues count along the entry.
UniProt P23471, residues 25-2315: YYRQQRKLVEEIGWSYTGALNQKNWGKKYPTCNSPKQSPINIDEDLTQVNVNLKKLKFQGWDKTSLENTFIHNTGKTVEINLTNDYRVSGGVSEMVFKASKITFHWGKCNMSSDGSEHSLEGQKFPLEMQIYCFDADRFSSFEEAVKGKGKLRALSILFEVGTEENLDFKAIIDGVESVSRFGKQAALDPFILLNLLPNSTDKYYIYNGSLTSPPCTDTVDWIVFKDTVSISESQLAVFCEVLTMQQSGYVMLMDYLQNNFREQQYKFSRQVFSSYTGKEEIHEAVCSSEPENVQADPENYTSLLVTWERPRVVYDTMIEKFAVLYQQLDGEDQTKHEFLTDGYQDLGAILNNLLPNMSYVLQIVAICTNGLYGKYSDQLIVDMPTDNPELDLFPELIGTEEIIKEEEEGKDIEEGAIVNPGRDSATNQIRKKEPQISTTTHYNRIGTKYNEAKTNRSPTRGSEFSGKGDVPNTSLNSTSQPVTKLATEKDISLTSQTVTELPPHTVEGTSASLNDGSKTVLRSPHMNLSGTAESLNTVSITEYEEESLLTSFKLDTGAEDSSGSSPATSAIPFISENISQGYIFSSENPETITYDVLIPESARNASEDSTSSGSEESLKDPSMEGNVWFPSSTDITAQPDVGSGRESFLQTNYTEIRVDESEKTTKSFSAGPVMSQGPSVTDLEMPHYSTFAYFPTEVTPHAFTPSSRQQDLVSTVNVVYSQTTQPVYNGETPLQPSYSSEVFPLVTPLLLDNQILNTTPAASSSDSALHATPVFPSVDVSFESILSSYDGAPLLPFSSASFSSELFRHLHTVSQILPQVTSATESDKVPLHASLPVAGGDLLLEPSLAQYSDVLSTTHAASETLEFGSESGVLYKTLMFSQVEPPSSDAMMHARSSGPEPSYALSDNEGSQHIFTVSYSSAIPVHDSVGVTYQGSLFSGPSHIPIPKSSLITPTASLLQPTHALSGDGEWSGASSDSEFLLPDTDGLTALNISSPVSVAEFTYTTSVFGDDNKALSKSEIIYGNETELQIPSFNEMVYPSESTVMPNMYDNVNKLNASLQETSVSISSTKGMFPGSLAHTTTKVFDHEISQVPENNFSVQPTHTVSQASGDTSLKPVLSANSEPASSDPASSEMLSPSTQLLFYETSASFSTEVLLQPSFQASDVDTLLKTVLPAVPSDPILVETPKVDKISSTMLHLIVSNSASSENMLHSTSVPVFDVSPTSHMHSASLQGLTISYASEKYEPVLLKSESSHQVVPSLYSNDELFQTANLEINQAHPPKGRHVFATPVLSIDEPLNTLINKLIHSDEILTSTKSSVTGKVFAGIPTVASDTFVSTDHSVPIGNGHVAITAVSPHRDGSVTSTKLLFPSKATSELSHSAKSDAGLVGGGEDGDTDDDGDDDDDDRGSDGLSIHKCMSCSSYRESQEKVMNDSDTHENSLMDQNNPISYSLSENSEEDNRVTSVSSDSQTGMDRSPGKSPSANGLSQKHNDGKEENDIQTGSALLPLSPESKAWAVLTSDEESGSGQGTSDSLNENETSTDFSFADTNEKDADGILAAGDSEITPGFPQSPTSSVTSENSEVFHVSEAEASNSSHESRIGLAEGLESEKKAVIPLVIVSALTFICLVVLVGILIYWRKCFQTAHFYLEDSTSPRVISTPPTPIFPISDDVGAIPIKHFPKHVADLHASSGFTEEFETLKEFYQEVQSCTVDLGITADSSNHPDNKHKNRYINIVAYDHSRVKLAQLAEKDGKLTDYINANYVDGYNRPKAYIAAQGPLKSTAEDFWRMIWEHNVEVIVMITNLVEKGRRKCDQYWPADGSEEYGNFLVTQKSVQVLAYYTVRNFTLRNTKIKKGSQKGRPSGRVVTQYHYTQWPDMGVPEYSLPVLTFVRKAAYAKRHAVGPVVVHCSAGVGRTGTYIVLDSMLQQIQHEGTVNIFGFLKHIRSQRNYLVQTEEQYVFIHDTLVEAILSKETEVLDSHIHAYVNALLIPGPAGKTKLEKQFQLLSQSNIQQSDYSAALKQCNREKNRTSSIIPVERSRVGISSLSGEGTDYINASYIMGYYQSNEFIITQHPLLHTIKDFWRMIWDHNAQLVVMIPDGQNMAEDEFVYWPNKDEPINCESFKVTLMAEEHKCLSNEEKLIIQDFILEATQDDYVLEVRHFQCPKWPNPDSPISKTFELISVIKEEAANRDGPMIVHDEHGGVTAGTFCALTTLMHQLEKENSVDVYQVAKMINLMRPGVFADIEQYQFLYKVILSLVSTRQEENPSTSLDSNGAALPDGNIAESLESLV

This experiment has as its target Z1-type protein tyrosine phosphatase receptor (PTPRZ1), Flag-tagged (human) (UniProt P23471). The experiment in a line: co-IP; 293T cells transfected with PTPRZ1-Flag (or empty Flag vector) and PTN-TurboID-HA for 18 h; lysis in 50 mM Tris-HCl pH 8.0, 150 mM NaCl, 1 mM EDTA, 1% NP-40; anti-FLAG M2 affinity gel, 4 °C, 1.5 h; beads split into 4 parts in PBS and incubated with curcumin (0, 40, 80, 160 µM) at 37 °C for 30 min, then washed; blot for HA.

No constants are given. Whether binding was seen depends on the method and setting. Binding seen in cells or lysates may run through a third protein. Some binding calls cover weakened binding; strength is not graded here. Tags and fused reporters may be left off the sequences shown.

B1: Pleiotrophin (PTN), HA-tagged, with TurboID fused behind the PTN coding sequence (ligand, UniProt P21246 33-168)
chain: GKKEKPEKKVKKSDCGEWQWSVCVPTSGDCGLGTREGTRTGAECKQTMKTQRCKIPCNWKKQFGAECKYQFQAWGECDLNTALKTRTGSLKRALHNAECQKTVTISKPCGKLTKPKPQAESKKKKKEGKKQEKMLD
Consider B1, for which the binding result is on record as “binds”.
